# PubChem BioAssay AID1159584 – Peter MacCallum Cancer Centre | 2016
# Purpose: 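Knock-downs that harm CDH1-null cells more than parental MCF10A cells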 (primary screen)
# Cells: human MCF10A breast epithelial cells, parental and CDH1-null
# Reagents: siRNA against human genes
# Measured: 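ATP luminescence (CellTiter-Glo) viability per line relative to mean mock wells over all plates, and the ratio of CDH1-null to parental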
# Reading the numbers: CDH1-null / parental viability ratio: higher = CDH1-null cells survive relatively better than parental
# The deposit covers about 18,000 reagents; below is a part drawn at random. Further read-outs or replicates are left out here. Not given: the amount of reagent, the time to read-out.
target gene,CDH1-null / parental viability ratio
RWDD2B,0.98
TSSK2,1.07
CYTH3,0.76
TRIM75,0.94
CERS3,0.69
ABCC1,1.04
LRATD1,1.1
SOX9,1.08
XBP1,1.07
ARHGEF15,1.21
GPBP1,1.13
TRPC7,1.19
TM2D3,0.64
HSD17B2,0.87
SUPT3H,1.03
CDCA2,0.76
LIMS1,0.57
ASCL3,1.72
RNF122,0.94
TSEN54,0.91
DEFB121,1.47
SPRR2E,0.97
SS18L2,0.84
RPL41,1.16
GTF2H2C_2,1.25
ARHGAP19,1.11
A2M,0.87
C3orf38,1.29
NUDT11,1.61
KCNK6,1.34
OPALIN,0.93
PLA2R1,0.82
SCG5,1.19
NOMO3,1.35
DYRK1A,0.98
CTAG1A,0.87
CGREF1,1.08
RIN2,1.32
HDAC9,0.65
CD244,1.13
ANKRD34B,1
AKAP19,0.79

Continued (5 carried over from the part before).
target gene,CDH1-null / parental viability ratio
RIN2,1.32
HDAC9,0.65
CD244,1.13
ANKRD34B,1
AKAP19,0.79
FAM153B,1.19
PDYN,1
ERI1,0.95
FGF1,0.93
ZNF268,1.15
ETV1,1.12
IKZF5,1.04
SPRR2F,0.71
ABCB1,1.02
CYREN,1.35
MVD,1.02
FOXP1,0.89
RAB15,1.26
CEP250,1.24
SPCS1,1.06
UBL4A,1.35
SMPD2,1.02
ZNF248,1.31
ADRB3,1.37
MST1R,0.82
SLMAP,1.21
BSN,1
PRMT9,1.29
RAG2,0.98
STK35,0.79
NEUROG1,1
